# Assay results as given in the supplement of paper PMC10849652.
# Sequences of proteins named here, by UniProt entry; tags and fusion partners are left off. A change or cut given only in a name is not applied to a line headed by its entry.
# UniProt Q5VTL8: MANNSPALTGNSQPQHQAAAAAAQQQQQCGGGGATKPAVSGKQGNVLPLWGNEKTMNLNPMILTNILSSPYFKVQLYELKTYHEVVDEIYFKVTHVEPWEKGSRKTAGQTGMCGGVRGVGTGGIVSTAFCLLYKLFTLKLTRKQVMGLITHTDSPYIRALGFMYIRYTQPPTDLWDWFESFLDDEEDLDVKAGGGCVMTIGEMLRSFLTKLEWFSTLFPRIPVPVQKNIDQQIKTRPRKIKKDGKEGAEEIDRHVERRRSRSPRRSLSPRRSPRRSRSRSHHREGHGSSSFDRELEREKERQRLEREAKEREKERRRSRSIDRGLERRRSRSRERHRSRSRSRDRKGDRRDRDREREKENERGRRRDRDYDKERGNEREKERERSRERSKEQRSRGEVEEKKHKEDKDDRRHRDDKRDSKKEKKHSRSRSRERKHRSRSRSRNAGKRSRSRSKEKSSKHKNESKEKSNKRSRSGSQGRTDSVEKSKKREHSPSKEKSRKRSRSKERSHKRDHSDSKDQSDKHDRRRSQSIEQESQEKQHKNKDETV
# UniProt Q96A00: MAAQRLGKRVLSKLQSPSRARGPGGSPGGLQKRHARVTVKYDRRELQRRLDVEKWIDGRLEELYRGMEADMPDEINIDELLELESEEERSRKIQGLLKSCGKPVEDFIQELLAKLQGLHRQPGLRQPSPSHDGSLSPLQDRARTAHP
# UniProt Q6IN85: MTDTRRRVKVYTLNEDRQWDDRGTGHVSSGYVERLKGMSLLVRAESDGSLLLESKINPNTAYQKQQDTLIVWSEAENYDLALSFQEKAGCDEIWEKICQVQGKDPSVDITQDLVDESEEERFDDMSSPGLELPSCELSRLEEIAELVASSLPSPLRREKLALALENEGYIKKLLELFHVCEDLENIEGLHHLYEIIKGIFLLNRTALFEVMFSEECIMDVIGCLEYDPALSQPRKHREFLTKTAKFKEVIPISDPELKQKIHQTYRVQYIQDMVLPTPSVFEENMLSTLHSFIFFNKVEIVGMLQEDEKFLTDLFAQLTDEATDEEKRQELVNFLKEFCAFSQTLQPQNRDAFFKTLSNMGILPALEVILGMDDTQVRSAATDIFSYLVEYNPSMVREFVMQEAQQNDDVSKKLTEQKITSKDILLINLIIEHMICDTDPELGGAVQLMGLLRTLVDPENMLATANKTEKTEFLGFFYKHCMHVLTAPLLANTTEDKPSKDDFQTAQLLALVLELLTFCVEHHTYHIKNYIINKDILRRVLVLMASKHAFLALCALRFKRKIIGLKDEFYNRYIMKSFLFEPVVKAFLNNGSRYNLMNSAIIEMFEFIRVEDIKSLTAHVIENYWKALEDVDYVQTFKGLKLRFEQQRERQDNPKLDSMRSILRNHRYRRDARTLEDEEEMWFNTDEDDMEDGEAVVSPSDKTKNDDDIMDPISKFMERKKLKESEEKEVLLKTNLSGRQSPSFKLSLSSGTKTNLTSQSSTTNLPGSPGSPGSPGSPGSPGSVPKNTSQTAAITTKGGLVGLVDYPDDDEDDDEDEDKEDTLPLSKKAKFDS
# UniProt P30041: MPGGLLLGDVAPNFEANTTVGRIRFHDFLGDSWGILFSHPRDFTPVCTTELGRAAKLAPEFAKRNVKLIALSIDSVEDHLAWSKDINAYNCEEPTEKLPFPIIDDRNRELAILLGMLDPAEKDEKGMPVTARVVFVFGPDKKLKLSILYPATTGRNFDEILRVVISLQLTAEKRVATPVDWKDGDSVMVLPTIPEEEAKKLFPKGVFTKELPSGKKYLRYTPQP
# UniProt P32119: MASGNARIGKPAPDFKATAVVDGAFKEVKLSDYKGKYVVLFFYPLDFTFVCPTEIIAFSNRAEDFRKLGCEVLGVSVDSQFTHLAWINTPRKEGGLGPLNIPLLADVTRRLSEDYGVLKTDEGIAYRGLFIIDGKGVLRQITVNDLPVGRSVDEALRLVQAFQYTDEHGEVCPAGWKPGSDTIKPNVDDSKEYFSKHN
# UniProt Q9UPN7: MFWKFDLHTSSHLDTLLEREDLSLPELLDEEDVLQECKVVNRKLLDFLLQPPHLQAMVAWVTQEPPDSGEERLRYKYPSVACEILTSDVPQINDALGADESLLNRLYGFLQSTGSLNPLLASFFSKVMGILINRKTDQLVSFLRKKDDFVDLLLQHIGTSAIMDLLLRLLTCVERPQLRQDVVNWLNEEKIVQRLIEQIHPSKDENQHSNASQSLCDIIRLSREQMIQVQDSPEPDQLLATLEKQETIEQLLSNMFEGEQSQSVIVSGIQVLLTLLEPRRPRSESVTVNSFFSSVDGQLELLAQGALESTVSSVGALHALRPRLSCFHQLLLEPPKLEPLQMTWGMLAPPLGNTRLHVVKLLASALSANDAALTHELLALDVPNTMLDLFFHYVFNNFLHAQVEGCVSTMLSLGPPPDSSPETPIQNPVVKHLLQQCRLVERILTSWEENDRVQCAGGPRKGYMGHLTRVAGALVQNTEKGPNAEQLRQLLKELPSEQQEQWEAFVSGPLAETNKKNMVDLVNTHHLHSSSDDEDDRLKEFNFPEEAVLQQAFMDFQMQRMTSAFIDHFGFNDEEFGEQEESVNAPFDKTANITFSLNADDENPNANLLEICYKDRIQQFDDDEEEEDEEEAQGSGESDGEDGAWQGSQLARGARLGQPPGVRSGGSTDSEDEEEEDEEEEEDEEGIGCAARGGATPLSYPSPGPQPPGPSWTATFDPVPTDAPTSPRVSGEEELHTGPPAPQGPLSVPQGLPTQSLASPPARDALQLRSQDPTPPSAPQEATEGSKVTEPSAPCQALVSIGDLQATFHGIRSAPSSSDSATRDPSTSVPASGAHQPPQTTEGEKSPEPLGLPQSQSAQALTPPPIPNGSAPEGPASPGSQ
# UniProt Q14558: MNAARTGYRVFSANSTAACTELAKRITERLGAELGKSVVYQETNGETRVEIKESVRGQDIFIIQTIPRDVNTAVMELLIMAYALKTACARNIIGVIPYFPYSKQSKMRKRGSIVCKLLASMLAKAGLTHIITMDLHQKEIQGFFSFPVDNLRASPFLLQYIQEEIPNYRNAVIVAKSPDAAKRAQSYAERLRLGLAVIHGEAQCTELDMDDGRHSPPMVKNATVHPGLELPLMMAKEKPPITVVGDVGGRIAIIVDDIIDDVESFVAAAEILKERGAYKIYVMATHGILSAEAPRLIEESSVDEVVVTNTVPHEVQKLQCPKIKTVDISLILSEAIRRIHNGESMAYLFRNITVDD
# UniProt O75569: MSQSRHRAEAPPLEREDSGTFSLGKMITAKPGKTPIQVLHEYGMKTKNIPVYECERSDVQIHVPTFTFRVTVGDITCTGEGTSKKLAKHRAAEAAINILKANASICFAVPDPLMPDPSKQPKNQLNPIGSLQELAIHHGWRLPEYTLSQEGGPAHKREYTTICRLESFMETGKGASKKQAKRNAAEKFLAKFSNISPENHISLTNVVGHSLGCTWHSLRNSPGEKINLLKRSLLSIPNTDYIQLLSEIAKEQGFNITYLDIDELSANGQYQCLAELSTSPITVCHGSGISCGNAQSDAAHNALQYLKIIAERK
# UniProt Q99873, whole entry, looked up: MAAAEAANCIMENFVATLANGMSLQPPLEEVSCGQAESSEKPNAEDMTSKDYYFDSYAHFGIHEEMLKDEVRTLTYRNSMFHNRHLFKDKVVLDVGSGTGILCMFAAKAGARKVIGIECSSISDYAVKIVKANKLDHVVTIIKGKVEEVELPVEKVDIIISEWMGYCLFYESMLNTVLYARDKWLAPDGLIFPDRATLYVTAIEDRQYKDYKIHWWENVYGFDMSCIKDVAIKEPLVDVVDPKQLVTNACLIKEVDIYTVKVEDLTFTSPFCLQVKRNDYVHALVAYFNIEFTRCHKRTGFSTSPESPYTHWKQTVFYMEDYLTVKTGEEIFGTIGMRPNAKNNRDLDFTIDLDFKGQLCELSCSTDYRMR
# UniProt O60256: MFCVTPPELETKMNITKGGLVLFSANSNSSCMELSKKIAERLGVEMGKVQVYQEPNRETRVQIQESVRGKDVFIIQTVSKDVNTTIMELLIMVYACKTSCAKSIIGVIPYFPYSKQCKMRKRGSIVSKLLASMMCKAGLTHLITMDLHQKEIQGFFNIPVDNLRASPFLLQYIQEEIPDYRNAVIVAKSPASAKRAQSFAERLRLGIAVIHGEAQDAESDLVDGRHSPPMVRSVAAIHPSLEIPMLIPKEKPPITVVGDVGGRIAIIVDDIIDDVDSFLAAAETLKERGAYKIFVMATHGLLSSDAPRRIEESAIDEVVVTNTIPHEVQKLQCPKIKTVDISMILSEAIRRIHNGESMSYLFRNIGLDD
# UniProt O75170: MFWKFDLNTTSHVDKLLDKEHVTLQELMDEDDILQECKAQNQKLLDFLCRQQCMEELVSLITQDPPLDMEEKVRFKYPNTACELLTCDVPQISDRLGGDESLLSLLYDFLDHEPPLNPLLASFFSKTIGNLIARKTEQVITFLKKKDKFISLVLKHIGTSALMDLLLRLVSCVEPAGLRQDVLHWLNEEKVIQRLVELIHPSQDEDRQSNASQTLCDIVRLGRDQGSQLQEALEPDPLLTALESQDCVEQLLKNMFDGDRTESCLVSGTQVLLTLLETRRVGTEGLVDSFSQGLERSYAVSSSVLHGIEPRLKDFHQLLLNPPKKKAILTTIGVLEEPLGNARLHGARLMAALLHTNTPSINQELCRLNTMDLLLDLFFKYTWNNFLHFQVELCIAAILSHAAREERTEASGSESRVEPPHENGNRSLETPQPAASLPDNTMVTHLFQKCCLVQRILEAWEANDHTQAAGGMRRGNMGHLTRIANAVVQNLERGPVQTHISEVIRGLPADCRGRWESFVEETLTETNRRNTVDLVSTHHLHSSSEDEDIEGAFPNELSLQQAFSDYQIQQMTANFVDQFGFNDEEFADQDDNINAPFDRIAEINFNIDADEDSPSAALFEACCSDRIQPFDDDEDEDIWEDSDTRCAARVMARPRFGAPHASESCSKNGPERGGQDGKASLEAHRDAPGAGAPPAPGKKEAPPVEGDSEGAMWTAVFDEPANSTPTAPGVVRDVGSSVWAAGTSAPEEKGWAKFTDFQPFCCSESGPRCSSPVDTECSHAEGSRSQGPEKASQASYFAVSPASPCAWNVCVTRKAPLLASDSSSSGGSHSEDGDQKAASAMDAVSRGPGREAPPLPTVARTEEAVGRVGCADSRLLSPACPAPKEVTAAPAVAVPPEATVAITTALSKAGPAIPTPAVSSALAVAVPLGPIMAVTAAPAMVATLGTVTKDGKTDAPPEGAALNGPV
# UniProt Q5H9R7: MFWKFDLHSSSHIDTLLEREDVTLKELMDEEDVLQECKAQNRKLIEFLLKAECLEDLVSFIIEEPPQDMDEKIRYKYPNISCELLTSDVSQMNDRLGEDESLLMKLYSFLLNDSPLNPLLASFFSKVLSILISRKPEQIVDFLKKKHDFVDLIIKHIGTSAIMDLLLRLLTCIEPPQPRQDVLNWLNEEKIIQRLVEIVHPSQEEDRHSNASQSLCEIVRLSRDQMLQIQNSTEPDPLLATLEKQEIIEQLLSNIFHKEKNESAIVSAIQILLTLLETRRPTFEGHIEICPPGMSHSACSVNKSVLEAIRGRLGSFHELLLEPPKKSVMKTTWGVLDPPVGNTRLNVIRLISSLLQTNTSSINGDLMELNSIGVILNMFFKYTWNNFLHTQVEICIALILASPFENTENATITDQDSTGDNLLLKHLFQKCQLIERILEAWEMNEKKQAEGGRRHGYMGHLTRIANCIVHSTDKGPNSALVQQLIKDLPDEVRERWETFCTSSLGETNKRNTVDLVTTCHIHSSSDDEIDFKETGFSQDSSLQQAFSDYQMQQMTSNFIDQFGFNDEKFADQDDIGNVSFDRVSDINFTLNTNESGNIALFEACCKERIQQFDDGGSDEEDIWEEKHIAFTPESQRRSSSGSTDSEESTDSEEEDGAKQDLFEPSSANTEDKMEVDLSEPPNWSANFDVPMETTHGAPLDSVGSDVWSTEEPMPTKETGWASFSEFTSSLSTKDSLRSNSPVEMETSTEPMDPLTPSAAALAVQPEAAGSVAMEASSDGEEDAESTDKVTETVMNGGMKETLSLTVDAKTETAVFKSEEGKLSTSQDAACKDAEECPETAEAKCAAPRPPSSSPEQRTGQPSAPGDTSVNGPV
# UniProt O60828: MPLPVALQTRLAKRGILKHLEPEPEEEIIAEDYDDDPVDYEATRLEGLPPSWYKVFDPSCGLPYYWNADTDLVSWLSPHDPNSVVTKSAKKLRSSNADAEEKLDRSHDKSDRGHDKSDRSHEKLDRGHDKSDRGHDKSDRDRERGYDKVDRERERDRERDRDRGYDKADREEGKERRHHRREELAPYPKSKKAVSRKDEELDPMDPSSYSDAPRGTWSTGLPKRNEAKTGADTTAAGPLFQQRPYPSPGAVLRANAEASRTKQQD
# This is one part of the list.
# Columns and labels:
# Experiment in all cases: log2 fold change, soluble protein after heating vs DMSO (PISA); higher = thermal stabilisation; K562 cells, 10 uM, 30 min; active = over 0.2 and 3.5 SD of the protein, either way, in both replicates (recomputed)
# [1] = compound: Cc1ccc(NC(=O)c2ccc(CN3CC[C@H](N(C)C)C3)c(C(F)(F)F)c2)cc1Nc1nccc(-c2cncnc2)n1 [bafetinib]
# Method in brief: (§1)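 K562 cells (2×10^6 cells/mL) were treated with 10 μM compound for 30 min, and aliquots were heated for 3 min over 48°C-58°C. Pooled aliquots were extracted in PBS with 0.5% NP-40 at 4°C, and the supernatant after 21,000xg for 90 min was measured by TMTpro 16plex LC-MS/MS with channel sums equalised. Reported thermal stability, relative to control samples and from duplicates, is a log2 fold change.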
# [2] = compound: Cc1cccc(CC(=O)N2CCc3c2ccc(-c2cn(C)c4ncnc(N)c24)c3F)n1
# Method in brief: as §1
# [3] = compound: Cc1cn(-c2cc(NC(=O)c3ccc(C)c(Nc4nccc(-c5cccnc5)n4)c3)cc(C(F)(F)F)c2)cn1 [nilotinib]
# Method in brief: as §1
# [4] = compound: Cc1nc(Nc2n[nH]c3c2CN(C(=O)N[C@H](CN(C)C)c2ccccc2)C3(C)C)c2sccc2n1
# Method in brief: as §1
# [5] = compound: Cc1nc(Nc2ncc(C(=O)Nc3c(C)cccc3Cl)s2)cc(N2CCN(CCO)CC2)n1 [dasatinib]
# Method in brief: as §1
# [6] = compound: Cc1ncc(-c2ccnc(Nc3ccc(S(C)(=O)=O)cc3)n2)n1C(C)C
# Method in brief: as §1
# [7] = compound: Cn1cc(-c2ccc3c(c2)CCN3C(=O)Cc2cccc(C(F)(F)F)c2)c2c(N)ncnc21
# Method in brief: as §1
# [8] = compound: Cn1cc(-c2ccc3nnc(C(F)(F)c4ccc5ncccc5c4)n3n2)cn1
# Method in brief: as §1
# [9] = compound: Cn1cncc1[C@@](N)(c1ccc(Cl)cc1)c1ccc2c(c1)c(-c1cccc(Cl)c1)cc(=O)n2C [tipifarnib]
# Method in brief: as §1
# [10] = compound: FC(F)(F)c1ccc(/C=C/c2nc(COc3ccc(CCCCn4ccnn4)cc3)co2)cc1 [mubritinib]
# Method in brief: as §1
# [11] = compound: NC(=O)Nc1cc(-c2cccc(F)c2)sc1C(=O)N[C@H]1CCCNC1
# Method in brief: as §1
# [12] = compound: NC(=O)c1cnc(N[C@@H]2CCCC[C@@H]2N)nc1Nc1cccc(-n2nccn2)c1
# Method in brief: as §1
# [13] = compound: NC1(c2ccc(-c3nc4ccn5c(=O)[nH]nc5c4cc3-c3ccccc3)cc2)CCC1
# Method in brief: as §1
# [14] = compound: NCC(=O)Nc1ccc(-n2nc(C(F)(F)F)cc2-c2ccc3c(ccc4ccccc43)c2)cc1
# Method in brief: as §1
# [15] = compound: Nc1ccccc1NC(=O)c1ccc(CNC(=O)OCc2cccnc2)cc1 [entinostat]
# Method in brief: as §1
# [16] = compound: O=C(CCCCCCC(=O)Nc1ccccc1)NO [vorinostat]
# Method in brief: as §1
# [17] = compound: O=C(CCCCCCNC(=O)c1cnc(N(c2ccccc2)c2ccccc2Cl)nc1)NO [citarinostat]
# Method in brief: as §1
# [18] = compound: O=C(O)c1ccc2c(c1)nc(Nc1cccc(Cl)c1)c1ccncc12 [silmitasertib]
# Method in brief: as §1
# [19] = compound: O=C1NC(=O)C(c2cnc3ccccn23)=C1c1cn2c3c(cc(F)cc13)CN(C(=O)N1CCCCC1)CC2
# Method in brief: as §1
# [20] = compound: c1cc(OCCN2CCCCC2)cc(-c2n[nH]c3ccc(-c4nnc[nH]4)cc23)c1
# Method in brief: as §1
Target,log2 fold change [1],log2 fold change [2],log2 fold change [3],log2 fold change [4],log2 fold change [5],log2 fold change [6],log2 fold change [7],log2 fold change [8],log2 fold change [9],log2 fold change [10],log2 fold change [11],log2 fold change [12],log2 fold change [13],log2 fold change [14],log2 fold change [15],log2 fold change [16],log2 fold change [17],log2 fold change [18],log2 fold change [19],log2 fold change [20]
PRPF38B (UniProt Q5VTL8),inactive: -0.016,inactive: -0.015,inactive: 0.049,active: -1.9,inactive: -0.022,inactive: -0.008,inactive: 0.012,inactive: -0.04,inactive: -0.067,inactive: 0.004,inactive: -0.199,inactive: -0.019,inactive: 0.017,inactive: -0.203,inactive: 0.006,inactive: 0.033,inactive: 0.028,inactive: -0.246,inactive: -0.006,inactive: -0.19
PPP1R14A (UniProt Q96A00),inactive: -0.058,inactive: 0.026,inactive: -0.01,inactive: 0.013,inactive: 0.019,inactive: 0.026,inactive: 0.076,inactive: -0.055,inactive: 0,inactive: 0.033,inactive: -0.051,inactive: 0.101,inactive: 0.02,inactive: 0.029,inactive: 0,inactive: 0.105,inactive: 0,inactive: -0.089,inactive: -0.014,inactive: 0.018
PPP4R3A (UniProt Q6IN85),inactive: -0.106,inactive: 0.01,inactive: -0.031,inactive: -0.013,inactive: 0.002,inactive: -0.01,inactive: 0.017,inactive: 0.057,inactive: 0.082,inactive: 0.114,inactive: -0.16,inactive: -0.039,inactive: -0.066,inactive: -0.04,inactive: -0.058,inactive: 0.064,inactive: 0.057,inactive: 0.092,inactive: -0.044,inactive: -0.034
PPP2R5E (UniProt Q16537),inactive: -0.023,inactive: -0.058,inactive: -0.11,inactive: 0.057,inactive: -0.074,inactive: -0.059,inactive: -0.049,inactive: -0.037,inactive: -0.159,inactive: 0.018,inactive: 0.015,inactive: -0.039,inactive: -0.078,inactive: -0.09,inactive: -0.021,inactive: 0.118,inactive: 0.058,inactive: -0.014,inactive: -0.016,inactive: 0.163
PRDX6 (UniProt P30041),inactive: -0.043,inactive: -0.023,inactive: -0.014,inactive: -0.014,inactive: -0.014,inactive: -0.015,inactive: 0.105,inactive: 0.008,inactive: -0.022,inactive: 0.019,inactive: -0.037,inactive: -0.046,inactive: -0.048,inactive: 0,inactive: -0.008,inactive: -0.049,inactive: -0.007,inactive: -0.057,inactive: -0.072,inactive: 0.007
PRDX2 (UniProt P32119),inactive: -0.051,inactive: 0.009,inactive: -0.016,inactive: -0.003,inactive: 0.003,inactive: -0.018,inactive: 0.031,inactive: 0.039,inactive: -0.018,inactive: 0.058,inactive: -0.028,inactive: -0.069,inactive: 0.001,inactive: -0.05,inactive: -0.001,inactive: -0.01,inactive: 0.036,inactive: -0.029,inactive: -0.082,inactive: -0.01
PPP6R1 (UniProt Q9UPN7),inactive: -0.024,inactive: 0.022,inactive: 0.003,inactive: -0.031,inactive: -0.02,inactive: -0.008,inactive: 0.003,inactive: 0.02,inactive: 0.01,inactive: 0.043,inactive: 0.023,inactive: -0.066,inactive: -0.09,inactive: 0.011,inactive: -0.018,inactive: 0.023,inactive: 0.054,inactive: 0.013,inactive: -0.055,inactive: -0.05
PRPSAP1 isoform 2 (UniProt Q14558),inactive: -0.004,inactive: 0.022,inactive: 0.018,inactive: 0.048,inactive: 0.07,inactive: 0.009,inactive: -0.021,inactive: -0.023,inactive: 0.025,inactive: 0.071,inactive: 0.06,inactive: 0.052,inactive: 0,inactive: 0.042,inactive: -0.032,inactive: -0.009,inactive: 0.028,inactive: 0.01,inactive: 0.006,inactive: -0.026
PRKRA (UniProt O75569),inactive: -0.056,inactive: -0.003,inactive: -0.028,inactive: -0.056,inactive: -0.02,inactive: -0.047,inactive: -0.241,inactive: -0.18,inactive: 0.05,inactive: -0.239,inactive: 0.095,inactive: 0.053,inactive: 0.179,inactive: 0.102,inactive: -0.012,inactive: 0.019,inactive: -0.084,inactive: 0.139,inactive: 0.258,inactive: -0.225
PRMT1 (UniProt Q99873),inactive: -0.017,inactive: 0.08,inactive: -0.037,inactive: 0.007,inactive: -0.055,inactive: 0.007,inactive: 0.073,inactive: -0.052,inactive: -0.08,inactive: 0.051,inactive: -0.017,inactive: -0.042,inactive: -0.13,inactive: -0.035,inactive: 0.014,inactive: 0.012,inactive: 0.001,inactive: -0.008,inactive: -0.069,inactive: -0.064
PRPSAP2 (UniProt O60256),inactive: -0.034,inactive: 0.124,inactive: -0.024,inactive: 0.064,inactive: -0.028,inactive: -0.005,inactive: -0.037,inactive: -0.018,inactive: 0.023,inactive: -0.008,inactive: -0.146,inactive: 0.1,inactive: 0.019,inactive: 0.034,inactive: -0.109,inactive: 0.003,inactive: -0.02,inactive: 0.011,inactive: -0.052,inactive: -0.03
PRRC2B (UniProt Q5JSZ5),inactive: -0.014,inactive: -0.063,inactive: -0.016,inactive: -0.034,inactive: -0.005,inactive: 0.049,inactive: -0.041,inactive: -0.01,inactive: 0.019,inactive: -0.052,inactive: 0.011,inactive: -0.037,inactive: -0.006,inactive: 0.053,inactive: -0.006,inactive: -0.025,inactive: -0.12,inactive: 0.04,inactive: 0.005,inactive: -0.031
PPP6R2 isoform 5 (UniProt O75170),inactive: 0.047,inactive: -0.028,inactive: 0.033,inactive: -0.012,inactive: -0.044,inactive: -0.018,inactive: 0,inactive: 0.013,inactive: -0.013,inactive: 0.026,inactive: 0.047,inactive: 0.048,inactive: -0.053,inactive: 0.082,inactive: -0.017,inactive: 0.028,inactive: 0.077,inactive: -0.002,inactive: -0.019,inactive: -0.022
PPP6R3 isoform 5 (UniProt Q5H9R7),inactive: -0.062,inactive: 0.011,inactive: 0.015,inactive: -0.002,inactive: 0.011,inactive: -0.014,inactive: 0.029,inactive: 0,inactive: 0.038,inactive: 0.05,inactive: 0.038,inactive: -0.001,inactive: -0.044,inactive: 0.021,inactive: -0.023,inactive: 0.008,inactive: 0.023,inactive: 0.035,inactive: -0.008,inactive: -0.027
PQBP1 (UniProt O60828),inactive: -0.03,inactive: -0.045,inactive: 0.01,inactive: 0.004,inactive: 0.068,inactive: 0.01,inactive: -0.027,inactive: -0.031,inactive: 0.087,inactive: -0.003,inactive: -0.012,inactive: 0.027,inactive: 0.027,inactive: 0.073,inactive: -0.025,inactive: -0.029,inactive: -0.01,inactive: -0.018,inactive: -0.005,inactive: -0.014

# Looked up one by one from the entries so far:
Target,log2 fold change [1],log2 fold change [2],log2 fold change [3],log2 fold change [4],log2 fold change [5],log2 fold change [6],log2 fold change [7],log2 fold change [8],log2 fold change [9],log2 fold change [10],log2 fold change [11],log2 fold change [12],log2 fold change [13],log2 fold change [14],log2 fold change [15],log2 fold change [16],log2 fold change [17],log2 fold change [18],log2 fold change [19],log2 fold change [20]
PQBP1 (UniProt O60828),inactive: -0.03,inactive: -0.045,inactive: 0.01,inactive: 0.004,inactive: 0.068,inactive: 0.01,inactive: -0.027,inactive: -0.031,inactive: 0.087,inactive: -0.003,inactive: -0.012,inactive: 0.027,inactive: 0.027,inactive: 0.073,inactive: -0.025,inactive: -0.029,inactive: -0.01,inactive: -0.018,inactive: -0.005,inactive: -0.014
PRPSAP2 (UniProt O60256),inactive: -0.034,inactive: 0.124,inactive: -0.024,inactive: 0.064,inactive: -0.028,inactive: -0.005,inactive: -0.037,inactive: -0.018,inactive: 0.023,inactive: -0.008,inactive: -0.146,inactive: 0.1,inactive: 0.019,inactive: 0.034,inactive: -0.109,inactive: 0.003,inactive: -0.02,inactive: 0.011,inactive: -0.052,inactive: -0.03
